Experimental data taken from patent US8058314B2, “Conductance of improperly folded proteins through the secretory pathway and related methods for treating disease” (Yale University, priority 1999, dated 2011).
At least one compound was matched to its structure with a doubt left.

Assays:
[1] = test system: Delta F508 CFTR; assay: Immunofluorescence localization of CFTR in Delta F508-expressing CHO cells; assay type: cell-based; settings: 50 microM curcumin 90 min, then 90 min without drug
[2] = test system: SERCA ATPases; settings: cited from earlier work

COc1cc(/C=C/C(=O)CC(=O)/C=C/c2ccc(O)c(OC)c2)ccc1O [curcumin, 1,7-bis(4-hydroxy-e-methoxyphenol)-1,6-heptadiene-3,5-dione]
CFTR staining pattern [1]: bright labeling of the cell surface was detected in all of the cells | concentrations at which curcumin increases SERCA activity ([2]; certain experimental settings (Logan-Smith, et al.)): < 0.8 µM | potency of SERCA inhibition [2]: micromolar
